Some of the results follow.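 How the source made its calls: active = dose-dependent thermal stabilisation significant by F-test of dose-response against flat model at 10% FDR; inactive = not significant.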

Sequences of proteins named here, by UniProt entry; tags and fusion partners are left off. A change or cut given only in a name is not applied to a line headed by its entry.
UniProt Q8N4Q1: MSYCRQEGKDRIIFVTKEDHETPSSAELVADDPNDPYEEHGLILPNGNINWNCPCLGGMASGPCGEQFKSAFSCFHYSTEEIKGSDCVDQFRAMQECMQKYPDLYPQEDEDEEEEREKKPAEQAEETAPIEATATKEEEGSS
UniProt Q9HC77: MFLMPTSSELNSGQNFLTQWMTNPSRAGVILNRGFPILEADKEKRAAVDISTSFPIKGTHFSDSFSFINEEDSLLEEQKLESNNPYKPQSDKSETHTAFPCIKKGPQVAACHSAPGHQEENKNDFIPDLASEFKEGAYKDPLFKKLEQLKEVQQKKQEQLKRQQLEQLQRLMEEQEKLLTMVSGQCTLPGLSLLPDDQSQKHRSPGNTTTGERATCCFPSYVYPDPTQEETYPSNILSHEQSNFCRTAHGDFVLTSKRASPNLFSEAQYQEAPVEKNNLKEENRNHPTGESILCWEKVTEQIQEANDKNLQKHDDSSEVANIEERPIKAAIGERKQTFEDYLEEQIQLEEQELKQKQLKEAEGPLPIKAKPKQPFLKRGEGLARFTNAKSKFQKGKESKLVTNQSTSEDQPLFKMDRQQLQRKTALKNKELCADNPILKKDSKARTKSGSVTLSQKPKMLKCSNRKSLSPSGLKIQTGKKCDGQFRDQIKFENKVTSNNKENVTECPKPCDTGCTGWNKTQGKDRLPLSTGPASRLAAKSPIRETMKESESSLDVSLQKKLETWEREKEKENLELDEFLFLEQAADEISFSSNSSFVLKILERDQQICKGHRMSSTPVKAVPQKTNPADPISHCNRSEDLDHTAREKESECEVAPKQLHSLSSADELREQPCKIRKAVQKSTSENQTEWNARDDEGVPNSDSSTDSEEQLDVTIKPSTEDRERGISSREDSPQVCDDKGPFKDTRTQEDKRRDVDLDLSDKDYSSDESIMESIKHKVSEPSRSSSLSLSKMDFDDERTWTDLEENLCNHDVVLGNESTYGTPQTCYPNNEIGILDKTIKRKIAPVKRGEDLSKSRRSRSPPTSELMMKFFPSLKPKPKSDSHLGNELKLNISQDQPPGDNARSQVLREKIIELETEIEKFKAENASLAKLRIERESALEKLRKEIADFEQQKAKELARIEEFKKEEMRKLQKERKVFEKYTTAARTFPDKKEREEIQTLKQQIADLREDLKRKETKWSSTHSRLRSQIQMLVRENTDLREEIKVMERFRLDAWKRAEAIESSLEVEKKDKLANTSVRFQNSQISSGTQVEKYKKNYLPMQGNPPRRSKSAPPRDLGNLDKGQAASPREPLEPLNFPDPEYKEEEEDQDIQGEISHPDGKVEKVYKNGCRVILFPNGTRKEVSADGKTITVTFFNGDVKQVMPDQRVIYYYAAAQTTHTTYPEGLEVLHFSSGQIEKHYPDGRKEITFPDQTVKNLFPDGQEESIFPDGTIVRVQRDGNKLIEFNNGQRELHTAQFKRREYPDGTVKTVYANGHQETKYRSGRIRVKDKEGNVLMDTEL
UniProt Q5EBM0: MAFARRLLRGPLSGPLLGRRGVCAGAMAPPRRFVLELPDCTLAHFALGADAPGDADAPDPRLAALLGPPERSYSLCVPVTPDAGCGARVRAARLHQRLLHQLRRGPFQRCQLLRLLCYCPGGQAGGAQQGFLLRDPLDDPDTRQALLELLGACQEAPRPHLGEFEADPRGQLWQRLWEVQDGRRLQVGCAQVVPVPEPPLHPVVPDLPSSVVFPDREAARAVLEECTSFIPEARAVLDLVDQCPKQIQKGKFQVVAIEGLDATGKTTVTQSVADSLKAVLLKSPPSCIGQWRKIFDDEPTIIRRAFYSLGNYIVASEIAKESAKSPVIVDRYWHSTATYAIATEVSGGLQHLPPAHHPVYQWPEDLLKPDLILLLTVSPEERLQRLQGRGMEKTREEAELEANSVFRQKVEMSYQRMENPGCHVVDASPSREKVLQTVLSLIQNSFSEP
UniProt P53621: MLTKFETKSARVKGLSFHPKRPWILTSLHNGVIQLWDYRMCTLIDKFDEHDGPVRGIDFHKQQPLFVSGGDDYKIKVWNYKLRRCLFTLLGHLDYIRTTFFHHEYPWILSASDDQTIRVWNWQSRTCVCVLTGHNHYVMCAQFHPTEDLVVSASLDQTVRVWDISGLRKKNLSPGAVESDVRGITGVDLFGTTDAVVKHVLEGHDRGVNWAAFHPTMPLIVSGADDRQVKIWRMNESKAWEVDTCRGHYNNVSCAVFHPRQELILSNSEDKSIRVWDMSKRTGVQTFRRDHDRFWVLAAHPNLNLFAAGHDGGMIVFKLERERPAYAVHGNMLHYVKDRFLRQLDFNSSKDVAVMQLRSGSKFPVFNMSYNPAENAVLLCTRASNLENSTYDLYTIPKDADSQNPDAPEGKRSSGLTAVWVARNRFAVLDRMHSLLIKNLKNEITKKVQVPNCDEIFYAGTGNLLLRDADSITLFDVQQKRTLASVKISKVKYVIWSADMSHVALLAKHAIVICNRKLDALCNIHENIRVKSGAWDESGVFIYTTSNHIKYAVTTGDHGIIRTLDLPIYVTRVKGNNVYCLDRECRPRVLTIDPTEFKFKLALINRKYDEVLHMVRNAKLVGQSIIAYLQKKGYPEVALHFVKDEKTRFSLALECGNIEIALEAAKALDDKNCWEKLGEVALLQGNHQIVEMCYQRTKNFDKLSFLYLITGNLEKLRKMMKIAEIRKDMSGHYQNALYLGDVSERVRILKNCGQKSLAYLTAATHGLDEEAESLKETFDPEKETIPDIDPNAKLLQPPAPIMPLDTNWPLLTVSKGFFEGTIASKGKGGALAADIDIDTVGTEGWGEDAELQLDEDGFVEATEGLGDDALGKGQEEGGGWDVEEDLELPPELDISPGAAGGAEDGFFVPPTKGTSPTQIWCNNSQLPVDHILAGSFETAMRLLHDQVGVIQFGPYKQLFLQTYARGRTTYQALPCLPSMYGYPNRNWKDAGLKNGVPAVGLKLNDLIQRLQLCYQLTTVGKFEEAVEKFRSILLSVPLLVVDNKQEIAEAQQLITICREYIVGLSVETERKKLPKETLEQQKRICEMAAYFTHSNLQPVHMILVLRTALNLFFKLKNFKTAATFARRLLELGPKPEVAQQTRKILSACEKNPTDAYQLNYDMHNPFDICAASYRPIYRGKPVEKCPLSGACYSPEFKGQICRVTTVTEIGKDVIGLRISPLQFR
UniProt P83916, whole entry, looked up: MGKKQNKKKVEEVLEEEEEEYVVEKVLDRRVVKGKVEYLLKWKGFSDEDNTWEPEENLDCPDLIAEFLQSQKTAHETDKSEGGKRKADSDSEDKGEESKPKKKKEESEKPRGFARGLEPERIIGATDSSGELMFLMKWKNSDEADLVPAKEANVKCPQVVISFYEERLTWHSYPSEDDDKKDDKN
UniProt Q9BRF8, whole entry: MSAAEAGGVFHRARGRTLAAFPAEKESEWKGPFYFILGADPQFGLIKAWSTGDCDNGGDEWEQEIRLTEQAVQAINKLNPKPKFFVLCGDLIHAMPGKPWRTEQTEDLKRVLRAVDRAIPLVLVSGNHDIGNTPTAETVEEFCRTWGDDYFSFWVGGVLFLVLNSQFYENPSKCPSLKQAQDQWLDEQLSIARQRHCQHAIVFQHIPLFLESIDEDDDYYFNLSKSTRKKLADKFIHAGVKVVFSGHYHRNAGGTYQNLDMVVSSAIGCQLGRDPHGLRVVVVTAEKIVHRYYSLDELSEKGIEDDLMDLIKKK
UniProt P60953, whole entry, looked up: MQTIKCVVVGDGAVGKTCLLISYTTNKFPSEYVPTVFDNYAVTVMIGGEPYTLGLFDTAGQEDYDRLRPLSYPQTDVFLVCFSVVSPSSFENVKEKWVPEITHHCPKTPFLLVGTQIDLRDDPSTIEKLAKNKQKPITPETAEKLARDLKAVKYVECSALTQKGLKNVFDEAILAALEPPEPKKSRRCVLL
UniProt Q9UHD1: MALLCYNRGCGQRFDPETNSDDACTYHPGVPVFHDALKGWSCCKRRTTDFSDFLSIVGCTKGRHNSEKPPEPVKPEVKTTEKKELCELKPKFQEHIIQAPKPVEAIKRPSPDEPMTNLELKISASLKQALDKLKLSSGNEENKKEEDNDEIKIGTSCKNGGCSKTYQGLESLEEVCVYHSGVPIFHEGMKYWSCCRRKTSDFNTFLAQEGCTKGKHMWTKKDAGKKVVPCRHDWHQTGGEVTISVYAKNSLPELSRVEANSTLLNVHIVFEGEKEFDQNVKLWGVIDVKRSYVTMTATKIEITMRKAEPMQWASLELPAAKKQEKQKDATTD
UniProt O95273: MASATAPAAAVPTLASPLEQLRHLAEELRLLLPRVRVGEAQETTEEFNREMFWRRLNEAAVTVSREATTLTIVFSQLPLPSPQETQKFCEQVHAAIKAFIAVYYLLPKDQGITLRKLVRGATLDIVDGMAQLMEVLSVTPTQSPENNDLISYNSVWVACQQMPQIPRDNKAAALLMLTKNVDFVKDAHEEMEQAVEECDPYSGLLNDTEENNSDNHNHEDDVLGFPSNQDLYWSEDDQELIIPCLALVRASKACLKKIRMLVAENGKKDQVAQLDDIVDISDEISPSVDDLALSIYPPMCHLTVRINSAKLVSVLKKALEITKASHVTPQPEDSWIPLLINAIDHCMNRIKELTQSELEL
UniProt P42574: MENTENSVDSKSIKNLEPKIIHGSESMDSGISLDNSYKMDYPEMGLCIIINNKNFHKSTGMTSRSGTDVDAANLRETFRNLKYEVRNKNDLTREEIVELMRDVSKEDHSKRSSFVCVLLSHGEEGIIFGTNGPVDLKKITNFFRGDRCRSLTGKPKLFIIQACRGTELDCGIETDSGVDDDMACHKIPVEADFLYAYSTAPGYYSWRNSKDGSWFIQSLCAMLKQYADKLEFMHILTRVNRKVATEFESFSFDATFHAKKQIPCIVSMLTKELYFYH
UniProt O14618: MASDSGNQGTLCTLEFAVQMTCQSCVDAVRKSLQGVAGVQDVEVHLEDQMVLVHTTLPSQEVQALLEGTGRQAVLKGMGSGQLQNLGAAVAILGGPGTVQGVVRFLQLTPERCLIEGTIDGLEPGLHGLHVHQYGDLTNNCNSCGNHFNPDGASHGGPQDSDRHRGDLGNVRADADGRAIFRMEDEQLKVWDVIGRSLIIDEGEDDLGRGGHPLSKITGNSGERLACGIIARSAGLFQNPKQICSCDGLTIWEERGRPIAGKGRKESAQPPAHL
UniProt Q16667, whole entry: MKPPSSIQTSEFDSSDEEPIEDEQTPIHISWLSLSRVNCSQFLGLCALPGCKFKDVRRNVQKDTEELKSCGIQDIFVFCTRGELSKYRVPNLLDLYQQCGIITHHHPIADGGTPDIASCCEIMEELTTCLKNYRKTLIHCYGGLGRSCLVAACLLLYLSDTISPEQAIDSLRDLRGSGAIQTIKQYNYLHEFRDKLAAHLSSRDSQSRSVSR
UniProt P36551: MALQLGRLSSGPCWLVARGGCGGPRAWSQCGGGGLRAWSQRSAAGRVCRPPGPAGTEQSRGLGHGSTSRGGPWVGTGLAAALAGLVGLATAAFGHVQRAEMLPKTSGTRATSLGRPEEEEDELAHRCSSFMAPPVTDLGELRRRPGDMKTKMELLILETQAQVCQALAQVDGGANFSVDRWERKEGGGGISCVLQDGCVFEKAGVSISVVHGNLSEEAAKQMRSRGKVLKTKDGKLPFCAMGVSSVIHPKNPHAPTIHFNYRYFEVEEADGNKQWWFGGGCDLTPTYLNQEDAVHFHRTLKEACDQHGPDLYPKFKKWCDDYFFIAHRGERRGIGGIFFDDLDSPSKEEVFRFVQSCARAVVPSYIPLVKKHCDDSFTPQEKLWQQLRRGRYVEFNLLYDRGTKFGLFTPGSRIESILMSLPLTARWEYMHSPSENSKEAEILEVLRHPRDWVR
UniProt Q9NZN8, whole entry: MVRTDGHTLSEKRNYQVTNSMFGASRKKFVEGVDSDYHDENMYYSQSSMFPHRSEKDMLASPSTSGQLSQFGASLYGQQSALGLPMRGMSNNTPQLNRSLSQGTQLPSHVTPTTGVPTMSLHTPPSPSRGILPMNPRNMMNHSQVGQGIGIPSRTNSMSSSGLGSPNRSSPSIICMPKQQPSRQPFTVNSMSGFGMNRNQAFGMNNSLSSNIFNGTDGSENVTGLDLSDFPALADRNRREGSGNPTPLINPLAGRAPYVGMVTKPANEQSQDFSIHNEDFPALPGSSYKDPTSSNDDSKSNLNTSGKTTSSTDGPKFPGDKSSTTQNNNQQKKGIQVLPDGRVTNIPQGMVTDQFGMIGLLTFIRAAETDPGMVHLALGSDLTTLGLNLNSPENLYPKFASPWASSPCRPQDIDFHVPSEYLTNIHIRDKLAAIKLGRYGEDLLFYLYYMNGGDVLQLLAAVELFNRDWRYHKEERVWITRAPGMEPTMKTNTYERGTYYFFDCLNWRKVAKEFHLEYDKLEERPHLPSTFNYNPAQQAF
UniProt Q9UIV1, whole entry: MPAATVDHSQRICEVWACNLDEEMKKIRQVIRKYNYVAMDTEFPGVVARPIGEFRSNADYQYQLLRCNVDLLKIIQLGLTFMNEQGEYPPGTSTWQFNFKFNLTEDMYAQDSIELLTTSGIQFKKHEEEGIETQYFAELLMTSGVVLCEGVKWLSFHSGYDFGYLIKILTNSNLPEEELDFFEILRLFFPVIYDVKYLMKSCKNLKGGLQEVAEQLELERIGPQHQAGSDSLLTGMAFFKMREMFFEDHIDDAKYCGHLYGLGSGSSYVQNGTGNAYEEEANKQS

Compound in this test: Nc1nc2c(ncn2[C@@H]2O[C@H](COP(=O)(O)OP(=O)(O)OP(=O)(O)O)[C@@H](O)[C@H]2O)c(=O)[nH]1
Description: dose-dependent thermal stabilisation call (2D-TPP, DLPTP, 10% FDR) (binary (1 = stabilised)); higher = stabilised by the compound. The following applies: system: Jurkat gel-filtered lysate; concentration range 1-500 µM. Here is the method: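 2D thermal proteome profiling in gel-filtered Jurkat E6.1 lysate (2 mg/ml) treated with NaGTP (0, 1, 10, 100, 500 uM) for 10 min at room temperature, then heated 3 min at one of 12 temperatures (42-63.9 C). Soluble protein was quantified by TMT10 MS. The value is the DLPTP call of the paper: dose-dependent thermal stabilisation over all temperatures at 10% FDR (F-test of a dose-response against a flat model); one experiment, one call per tested protein.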
CDV3 (UniProt Q9UKY7): the “dose-dependent thermal stabilisation call” value was inactive: 0.
The value for CHCHD4 (UniProt Q8N4Q1) was inactive: 0.
The value for CIR1 (UniProt Q86X95) was inactive: 0; that for CDCA5 (UniProt Q96FF9) was inactive: 0.
The result for CC2D1B (UniProt Q5T0F9) reads inactive: 0; that for CNBP (UniProt P62633), inactive: 0.
With CENPJ (UniProt Q9HC77), the “dose-dependent thermal stabilisation call” value is inactive: 0.
The value for CDC73 (UniProt Q6P1J9) was inactive: 0; that for CHTF8 (UniProt P0CG13) was inactive: 0.
Turning to CCNA2 (UniProt P20248), the “dose-dependent thermal stabilisation call” value was inactive: 0.
The result for CMPK2 (UniProt Q5EBM0) reads active: 1; that for CCT7 (UniProt Q99832), inactive: 0.
CPNE3 (UniProt O75131): the “dose-dependent thermal stabilisation call” value is inactive: 0.
The value for COPA (UniProt P53621) was inactive: 0; that for CEP41 (UniProt Q9BYV8) was inactive: 0.
CHERP (UniProt Q8IWX8): the “dose-dependent thermal stabilisation call” value was inactive: 0.
For the target CDK9 (UniProt P50750), the “dose-dependent thermal stabilisation call” value was inactive: 0.
The value for CASP7 (UniProt P55210) was inactive: 0; that for COMMD3 (UniProt Q9UBI1) was inactive: 0; that for CHRAC1 (UniProt Q9NRG0) was inactive: 0.
The value for CBX1 (UniProt P83916) was inactive: 0; that for CDK12 (UniProt Q9NYV4) was active: 1.
The result for CHEK2 (UniProt O96017) reads inactive: 0; that for CPPED1 (UniProt Q9BRF8), inactive: 0; that for CDC42 (UniProt P60953), active: 1.
As for COPRS (UniProt Q9NQ92), the “dose-dependent thermal stabilisation call” value was inactive: 0.
The result for CHORDC1 (UniProt Q9UHD1) reads inactive: 0.
The result for CCDC94 (UniProt Q9BW85) reads inactive: 0; that for CCNDBP1 (UniProt O95273), inactive: 0; that for COX4I1 (UniProt P13073), inactive: 0.
The value for CPSF1 (UniProt Q10570) was inactive: 0; that for CASP3 (UniProt P42574) was inactive: 0; that for CBX5 (UniProt P45973) was inactive: 0.
In the case of CCS (UniProt O14618), the “dose-dependent thermal stabilisation call” value is active: 1.
The value for CDKN3 (UniProt Q16667) was active: 1; that for CENPH (UniProt Q9H3R5) was inactive: 0.
For CLPP (UniProt Q16740), the “dose-dependent thermal stabilisation call” value was inactive: 0.
Take CPOX (UniProt P36551): the “dose-dependent thermal stabilisation call” value was inactive: 0.
Regarding CNOT2 (UniProt Q9NZN8), the “dose-dependent thermal stabilisation call” value is inactive: 0.
The value for CNOT7 (UniProt Q9UIV1) was inactive: 0.

(Values after the supplement of paper PMC7666118.)
